The supplement of paper PMC7666118
The other results are listed elsewhere or left out.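 The calls were made as follows: active = dose-dependent thermal stabilisation significant by F-test of dose-response against flat model at 10% FDR; inactive = not significant.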

Protein sequences, listed by entry. Tags and fused reporters are not part of them. Lines headed by an entry give the natural chain unless they say otherwise; changes in a name come on top.
UniProt O00422: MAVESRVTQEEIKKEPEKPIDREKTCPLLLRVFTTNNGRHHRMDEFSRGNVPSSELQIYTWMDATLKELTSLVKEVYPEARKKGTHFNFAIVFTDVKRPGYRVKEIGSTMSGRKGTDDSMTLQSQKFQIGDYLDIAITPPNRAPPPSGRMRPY
UniProt Q14141: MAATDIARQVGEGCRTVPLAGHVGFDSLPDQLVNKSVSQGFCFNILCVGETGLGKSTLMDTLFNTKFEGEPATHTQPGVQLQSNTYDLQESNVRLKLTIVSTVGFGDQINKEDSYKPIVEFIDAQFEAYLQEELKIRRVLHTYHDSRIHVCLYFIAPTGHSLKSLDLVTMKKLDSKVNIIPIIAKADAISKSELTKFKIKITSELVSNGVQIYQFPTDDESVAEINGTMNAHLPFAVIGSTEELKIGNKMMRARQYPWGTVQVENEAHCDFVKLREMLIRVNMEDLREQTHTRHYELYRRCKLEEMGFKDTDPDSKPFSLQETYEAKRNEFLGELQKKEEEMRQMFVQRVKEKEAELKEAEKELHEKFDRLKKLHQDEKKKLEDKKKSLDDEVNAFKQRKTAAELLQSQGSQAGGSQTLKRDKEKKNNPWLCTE
UniProt Q9H4A4: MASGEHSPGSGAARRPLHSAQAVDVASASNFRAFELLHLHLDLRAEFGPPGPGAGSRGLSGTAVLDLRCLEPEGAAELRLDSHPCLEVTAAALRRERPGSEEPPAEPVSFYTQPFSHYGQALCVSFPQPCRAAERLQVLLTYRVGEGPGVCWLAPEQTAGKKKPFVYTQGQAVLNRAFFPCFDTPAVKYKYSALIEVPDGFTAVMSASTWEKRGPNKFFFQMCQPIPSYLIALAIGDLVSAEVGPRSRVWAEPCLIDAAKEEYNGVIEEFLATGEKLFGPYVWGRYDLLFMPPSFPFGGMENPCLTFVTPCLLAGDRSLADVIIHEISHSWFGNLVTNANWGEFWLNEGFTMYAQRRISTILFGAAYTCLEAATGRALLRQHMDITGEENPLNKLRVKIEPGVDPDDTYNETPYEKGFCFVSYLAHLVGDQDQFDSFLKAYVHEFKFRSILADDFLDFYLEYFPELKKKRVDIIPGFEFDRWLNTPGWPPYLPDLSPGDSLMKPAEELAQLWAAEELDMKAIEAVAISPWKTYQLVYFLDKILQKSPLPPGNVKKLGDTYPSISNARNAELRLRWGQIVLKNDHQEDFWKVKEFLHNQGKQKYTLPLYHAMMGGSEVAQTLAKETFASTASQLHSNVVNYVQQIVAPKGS
UniProt Q5JTH9: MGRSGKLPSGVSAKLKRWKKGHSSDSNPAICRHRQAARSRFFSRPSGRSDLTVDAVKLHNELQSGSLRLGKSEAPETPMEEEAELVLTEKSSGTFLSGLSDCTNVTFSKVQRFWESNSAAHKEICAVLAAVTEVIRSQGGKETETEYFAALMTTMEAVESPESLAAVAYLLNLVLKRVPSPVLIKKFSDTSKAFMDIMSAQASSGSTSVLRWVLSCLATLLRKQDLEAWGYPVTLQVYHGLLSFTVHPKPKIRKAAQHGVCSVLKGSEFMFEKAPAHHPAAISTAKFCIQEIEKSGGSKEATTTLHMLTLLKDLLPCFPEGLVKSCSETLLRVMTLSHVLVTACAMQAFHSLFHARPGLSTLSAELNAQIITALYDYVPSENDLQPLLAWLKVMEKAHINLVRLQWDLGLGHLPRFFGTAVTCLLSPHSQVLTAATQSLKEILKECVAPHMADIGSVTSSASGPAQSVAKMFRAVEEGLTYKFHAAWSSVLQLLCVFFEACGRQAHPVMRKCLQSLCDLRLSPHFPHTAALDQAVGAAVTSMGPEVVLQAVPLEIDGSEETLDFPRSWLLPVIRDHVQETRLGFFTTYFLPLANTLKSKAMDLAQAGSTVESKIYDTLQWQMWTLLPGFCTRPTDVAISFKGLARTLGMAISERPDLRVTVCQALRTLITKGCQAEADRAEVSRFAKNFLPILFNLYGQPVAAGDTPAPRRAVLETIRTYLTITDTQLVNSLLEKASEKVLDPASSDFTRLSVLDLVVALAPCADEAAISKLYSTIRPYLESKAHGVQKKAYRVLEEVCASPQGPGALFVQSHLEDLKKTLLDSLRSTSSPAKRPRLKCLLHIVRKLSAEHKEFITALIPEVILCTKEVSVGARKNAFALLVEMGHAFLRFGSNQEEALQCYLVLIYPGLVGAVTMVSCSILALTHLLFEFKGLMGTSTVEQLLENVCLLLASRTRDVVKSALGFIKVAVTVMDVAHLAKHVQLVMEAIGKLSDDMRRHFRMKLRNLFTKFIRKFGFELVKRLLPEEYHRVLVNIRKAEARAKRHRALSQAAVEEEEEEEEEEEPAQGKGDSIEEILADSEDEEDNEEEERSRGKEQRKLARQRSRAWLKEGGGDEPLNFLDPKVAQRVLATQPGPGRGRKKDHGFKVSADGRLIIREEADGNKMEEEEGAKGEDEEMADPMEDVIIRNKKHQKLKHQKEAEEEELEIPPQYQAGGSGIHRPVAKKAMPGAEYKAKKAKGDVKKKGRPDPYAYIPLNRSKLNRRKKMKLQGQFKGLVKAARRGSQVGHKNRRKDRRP
UniProt Q7L099: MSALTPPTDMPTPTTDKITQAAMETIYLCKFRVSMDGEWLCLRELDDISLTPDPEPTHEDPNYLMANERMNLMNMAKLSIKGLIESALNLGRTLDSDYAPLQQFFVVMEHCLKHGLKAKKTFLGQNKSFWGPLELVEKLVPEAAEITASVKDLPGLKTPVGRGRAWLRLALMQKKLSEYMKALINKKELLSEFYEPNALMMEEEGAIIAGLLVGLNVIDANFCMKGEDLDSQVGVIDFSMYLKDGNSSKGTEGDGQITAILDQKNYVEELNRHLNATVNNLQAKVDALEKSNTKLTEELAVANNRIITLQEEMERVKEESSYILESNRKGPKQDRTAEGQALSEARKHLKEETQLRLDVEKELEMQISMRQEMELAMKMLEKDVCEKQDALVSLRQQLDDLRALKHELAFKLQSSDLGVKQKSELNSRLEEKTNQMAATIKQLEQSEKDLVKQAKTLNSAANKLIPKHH
UniProt Q96BU1: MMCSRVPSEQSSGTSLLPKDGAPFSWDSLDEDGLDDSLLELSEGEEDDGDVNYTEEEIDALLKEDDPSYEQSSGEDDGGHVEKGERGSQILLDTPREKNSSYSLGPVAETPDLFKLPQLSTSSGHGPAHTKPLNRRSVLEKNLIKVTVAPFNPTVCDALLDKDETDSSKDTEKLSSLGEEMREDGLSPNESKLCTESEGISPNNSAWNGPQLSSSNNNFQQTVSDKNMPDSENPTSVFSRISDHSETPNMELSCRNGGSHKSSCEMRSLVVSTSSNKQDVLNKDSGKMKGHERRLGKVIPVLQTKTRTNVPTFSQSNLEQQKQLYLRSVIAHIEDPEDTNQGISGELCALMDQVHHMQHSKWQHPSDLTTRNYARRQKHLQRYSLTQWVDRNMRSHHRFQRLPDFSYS
UniProt Q8WTS6: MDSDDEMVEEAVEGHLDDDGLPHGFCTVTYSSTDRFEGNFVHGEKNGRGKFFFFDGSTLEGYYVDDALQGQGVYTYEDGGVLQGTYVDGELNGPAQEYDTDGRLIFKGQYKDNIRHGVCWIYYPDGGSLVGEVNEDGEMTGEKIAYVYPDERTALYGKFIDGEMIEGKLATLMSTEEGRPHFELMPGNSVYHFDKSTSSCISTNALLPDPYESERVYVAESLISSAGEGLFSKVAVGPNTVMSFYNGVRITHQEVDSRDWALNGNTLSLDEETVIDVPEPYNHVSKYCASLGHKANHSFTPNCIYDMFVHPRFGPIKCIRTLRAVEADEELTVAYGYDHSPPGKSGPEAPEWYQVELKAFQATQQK
UniProt Q13435: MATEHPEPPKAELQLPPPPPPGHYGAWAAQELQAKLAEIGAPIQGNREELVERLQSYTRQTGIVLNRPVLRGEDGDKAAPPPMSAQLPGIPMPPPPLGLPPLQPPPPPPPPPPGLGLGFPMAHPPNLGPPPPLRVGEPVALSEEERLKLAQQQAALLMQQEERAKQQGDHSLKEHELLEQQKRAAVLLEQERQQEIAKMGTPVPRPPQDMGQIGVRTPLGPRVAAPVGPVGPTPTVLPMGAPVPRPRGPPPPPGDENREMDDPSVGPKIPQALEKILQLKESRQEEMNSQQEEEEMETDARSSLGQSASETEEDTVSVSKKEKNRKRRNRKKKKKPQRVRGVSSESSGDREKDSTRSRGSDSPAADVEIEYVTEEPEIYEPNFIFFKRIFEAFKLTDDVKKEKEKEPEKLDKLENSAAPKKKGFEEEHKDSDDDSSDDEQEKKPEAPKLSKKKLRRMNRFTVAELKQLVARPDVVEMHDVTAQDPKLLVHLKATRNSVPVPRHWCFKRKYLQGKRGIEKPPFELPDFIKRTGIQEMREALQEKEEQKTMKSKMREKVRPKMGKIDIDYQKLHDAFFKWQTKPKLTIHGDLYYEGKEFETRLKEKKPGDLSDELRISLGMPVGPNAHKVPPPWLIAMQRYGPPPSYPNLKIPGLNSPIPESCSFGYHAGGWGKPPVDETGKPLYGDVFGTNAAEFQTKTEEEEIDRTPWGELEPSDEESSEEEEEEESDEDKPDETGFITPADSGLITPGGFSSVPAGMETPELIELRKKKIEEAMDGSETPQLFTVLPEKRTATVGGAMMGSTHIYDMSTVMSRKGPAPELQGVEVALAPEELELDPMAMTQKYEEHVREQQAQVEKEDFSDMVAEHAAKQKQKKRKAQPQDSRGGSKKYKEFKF
UniProt Q92834: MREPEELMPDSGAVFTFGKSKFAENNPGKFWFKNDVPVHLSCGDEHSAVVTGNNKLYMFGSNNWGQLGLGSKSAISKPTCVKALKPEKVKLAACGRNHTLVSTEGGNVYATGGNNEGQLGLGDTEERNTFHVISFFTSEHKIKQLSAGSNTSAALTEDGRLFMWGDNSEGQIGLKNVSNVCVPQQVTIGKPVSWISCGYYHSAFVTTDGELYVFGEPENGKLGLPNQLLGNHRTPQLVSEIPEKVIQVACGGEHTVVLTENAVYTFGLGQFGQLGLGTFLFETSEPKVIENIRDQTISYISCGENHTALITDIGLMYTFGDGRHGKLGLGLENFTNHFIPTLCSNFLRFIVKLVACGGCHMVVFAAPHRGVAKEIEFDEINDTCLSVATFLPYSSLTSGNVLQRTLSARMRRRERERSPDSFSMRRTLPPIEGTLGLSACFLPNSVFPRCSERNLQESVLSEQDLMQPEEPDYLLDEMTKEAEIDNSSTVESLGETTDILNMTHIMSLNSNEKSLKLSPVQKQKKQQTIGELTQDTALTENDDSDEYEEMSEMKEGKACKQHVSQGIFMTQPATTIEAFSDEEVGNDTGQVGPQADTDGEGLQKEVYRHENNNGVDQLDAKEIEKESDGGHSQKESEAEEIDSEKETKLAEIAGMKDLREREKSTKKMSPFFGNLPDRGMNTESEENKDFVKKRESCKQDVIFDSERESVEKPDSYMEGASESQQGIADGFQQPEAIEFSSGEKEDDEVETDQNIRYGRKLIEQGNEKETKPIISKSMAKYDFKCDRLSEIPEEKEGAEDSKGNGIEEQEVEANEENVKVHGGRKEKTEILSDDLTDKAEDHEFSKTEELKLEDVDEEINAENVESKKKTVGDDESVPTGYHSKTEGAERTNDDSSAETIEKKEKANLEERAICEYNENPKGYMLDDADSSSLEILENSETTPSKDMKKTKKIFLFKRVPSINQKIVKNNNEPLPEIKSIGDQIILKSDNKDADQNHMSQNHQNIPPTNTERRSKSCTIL
UniProt Q96I15: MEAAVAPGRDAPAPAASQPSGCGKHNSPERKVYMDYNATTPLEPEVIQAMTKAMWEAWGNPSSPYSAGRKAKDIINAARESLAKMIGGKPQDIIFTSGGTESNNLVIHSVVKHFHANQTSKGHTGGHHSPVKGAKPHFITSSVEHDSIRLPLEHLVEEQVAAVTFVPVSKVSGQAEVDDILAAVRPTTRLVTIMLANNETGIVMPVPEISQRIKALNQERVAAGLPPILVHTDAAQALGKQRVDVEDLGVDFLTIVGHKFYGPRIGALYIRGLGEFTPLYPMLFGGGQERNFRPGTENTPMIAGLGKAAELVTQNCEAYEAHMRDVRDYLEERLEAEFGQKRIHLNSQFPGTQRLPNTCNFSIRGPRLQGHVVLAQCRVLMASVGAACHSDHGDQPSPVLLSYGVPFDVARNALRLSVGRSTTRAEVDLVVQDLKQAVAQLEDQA
UniProt Q9Y265, whole entry: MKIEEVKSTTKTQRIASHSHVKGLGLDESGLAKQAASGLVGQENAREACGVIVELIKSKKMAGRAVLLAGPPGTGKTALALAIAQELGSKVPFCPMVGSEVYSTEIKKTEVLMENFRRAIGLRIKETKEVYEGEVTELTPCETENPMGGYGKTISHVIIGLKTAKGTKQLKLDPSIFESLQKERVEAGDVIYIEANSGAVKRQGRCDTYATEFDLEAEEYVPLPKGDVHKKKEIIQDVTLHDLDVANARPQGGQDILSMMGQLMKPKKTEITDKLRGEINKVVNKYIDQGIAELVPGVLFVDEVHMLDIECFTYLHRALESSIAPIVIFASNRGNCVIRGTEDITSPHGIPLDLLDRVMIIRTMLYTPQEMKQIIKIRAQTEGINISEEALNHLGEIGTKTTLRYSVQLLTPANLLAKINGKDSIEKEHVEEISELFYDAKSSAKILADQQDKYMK

compound: Nc1nc2c(ncn2[C@@H]2O[C@H](COP(=O)(O)OP(=O)(O)OP(=O)(O)O)[C@@H](O)[C@H]2O)c(=O)[nH]1; test: dose-dependent thermal stabilisation call (2D-TPP, DLPTP, 10% FDR) (binary (1 = stabilised)); higher = stabilised by the compound; details: system: Jurkat gel-filtered lysate; concentration range 1-500 µM

Row | Target | dose-dependent thermal stabilisation call
1 | SAP18 (UniProt O00422) | active: 1
2 | SEPTIN6 (UniProt Q14141) | active: 1
3 | RRAGC (UniProt Q9HB90) | inactive: 0
4 | RRM2 (UniProt P31350) | inactive: 0
5 | SF3B4 (UniProt Q15427) | inactive: 0
6 | SALL2 (UniProt Q9Y467) | inactive: 0
7 | RPL31 (UniProt P62899) | inactive: 0
8 | RNPEP (UniProt Q9H4A4) | inactive: 0
9 | RWDD4 (UniProt Q6NW29) | inactive: 0
10 | RRP12 (UniProt Q5JTH9) | inactive: 0
11 | RUFY3 (UniProt Q7L099) | inactive: 0
12 | RPL23A (UniProt P62750) | inactive: 0
13 | RSRC2 (UniProt Q7L4I2) | inactive: 0
14 | S100PBP (UniProt Q96BU1) | inactive: 0
15 | SETD7 (UniProt Q8WTS6) | inactive: 0
16 | RNF41 (UniProt Q9H4P4) | inactive: 0
17 | SETD1A (UniProt O15047) | inactive: 0
18 | SF3B2 (UniProt Q13435) | active: 1

2 entries drawn at random from those above, as already listed:
Row | Target | dose-dependent thermal stabilisation call
6 | SALL2 (UniProt Q9Y467) | inactive: 0
8 | RNPEP (UniProt Q9H4A4) | inactive: 0

Later entries.

Row | Target | dose-dependent thermal stabilisation call
19 | SAP30BP (UniProt Q9UHR5) | inactive: 0
20 | RPS3 (UniProt P23396) | inactive: 0
21 | RELA (UniProt Q04206) | inactive: 0
22 | RECQL (UniProt P46063) | inactive: 0
23 | RPGR (UniProt Q92834) | inactive: 0
24 | RPAP1 (UniProt Q9BWH6) | inactive: 0
25 | RRAGB (UniProt Q5VZM2) | active: 1
26 | RP9 (UniProt Q8TA86) | inactive: 0
27 | SF1 (UniProt Q15637) | inactive: 0
28 | SCLY (UniProt Q96I15) | inactive: 0
29 | SEPHS2 (UniProt Q99611) | inactive: 0
30 | RRM2B (UniProt Q7LG56) | inactive: 0
31 | RUVBL1 (UniProt Q9Y265) | inactive: 0
32 | RPS5 (UniProt P46782) | inactive: 0
33 | RNF2 (UniProt Q99496) | inactive: 0
34 | RNF114 (UniProt Q9Y508) | inactive: 0
35 | SAR1A (UniProt Q9NR31) | active: 1
36 | RPL10 (UniProt P27635) | active: 1
